For some of these results: For expression read-outs the peptide stands for its source gene, whose mRNA was measured; the gene is not named for every peptide.
Experiments:
[1] = system: tumor samples of other tumor types; assay: LC-MS detection/over-presentation of peptides on additional tumor types vs normal tissues; set-up: species or system human; conditions: for Additional Entities: additional tumor types: over-presentation on more than 5% of measured tumor samples, or presentation on more than 5% with ratio of geometric means tumor vs normal larger than 3
RCC samples = assay: Label-free relative LC-MS quantitation of HLA-presented peptides (presentation profile/score), RCC vs normal tissues; set-up: species or system human; key: very highly over-presented on tumors compared to a panel of normal tissues (+++); highly over-presented on tumors compared to a panel of normal tissues (++); over-presented on tumors compared to a panel of normal tissues (+); conditions: tumors (RCC) compared to a panel of normal tissues
[2] = system: source genes (mRNA) in RCC and normal tissues; assay: Expression profiling of genes encoding the peptides (Affymetrix microarray); set-up: species or system human; key: very highly over-expressed in tumors compared to a panel of normal tissues (+++); highly over-expressed in tumors compared to a panel of normal tissues (++); over-expressed in tumors compared to a panel of normal tissues (+); conditions: tumors compared to a panel of normal tissues

| Substance | Additional Entities [1] | Peptide Presentation (presentation score) (RCC samples) | Gene Expression (expression score) [2] | Other relevant organs/diseases ([1]; additional tumor types: over-presented on more than 5% of measured tumor samples, or presented on more than 5% with ratio of geometric means tumor vs normal tissues larger than 3) |
| --- | --- | --- | --- | --- |
| 62: peptide found in SLC47A1 (gene looked up) (VLAGPAFLVQL; listed as Homo sapiens) [compound 62] | Uterine Cancer | +++ | + |  |
| 93: peptide found in PLIN2 (gene looked up) (GVMAGDIYSV; listed as Homo sapiens) [compound 93] | Gallbladder Cancer, Bile Duct Cancer, PC | ++ | + | Lung, Colon, Rectum, Liver, Esophagus |
